Measured values reported in the supplement of paper PMC4635364.
Where a name gives a salt, the structure may show the parent alone. The list shows a part of the results. Repeats in this data set agree poorly, so a single value says little.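 Cells: ReNCell VM human fetal ventral-midbrain neural progenitors, differentiated mitogen-free. Blinded raters compared doublecortin-stained (early neurons) or tyrosine hydroxylase-stained (dopaminergic neurons) images with untreated wells, where 0 means no change. After repeats and both raters were averaged, compounds scoring 2 or above became hits for retesting.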

Legend:
ReNCell VM [1] = experiment: neuronal differentiation score (DCX+ cell fraction vs untreated, manual image score) (score (-3 to 3)); higher = more neuronal differentiation; conditions: 2 uM, 2 weeks
ReNCell VM [2] = experiment: dopaminergic neuron differentiation score (TH+ cell fraction vs untreated, manual image score) (score (0 to 3)); higher = more TH+ dopaminergic neuron differentiation; conditions: 2 uM, 4 weeks, BDNF 10 ng/ml + GDNF 10 ng/ml

CN1[C@@H]2CC[C@H]1C[C@@H](OC(=O)C(CO)c1ccccc1)C2 (some centres not stated) [Atropine sulfate monohydrate]
inactive: neuronal differentiation score (ReNCell VM [1]; library: Phytochemical) 1 | neuronal differentiation score (ReNCell VM [1]; library: Prestwick) 0 | dopaminergic neuron differentiation score (ReNCell VM [2]; library: Phytochemical) 0 | dopaminergic neuron differentiation score (ReNCell VM [2]; library: Prestwick) 0

NCCc1c[nH]c2ccc(O)cc12 [Serotonin hydrochloride]
inactive: neuronal differentiation score (ReNCell VM [1]; library: LOPAC) 0 | neuronal differentiation score (ReNCell VM [1]; library: Prestwick) 0 | dopaminergic neuron differentiation score (ReNCell VM [2]; library: LOPAC) 0 | dopaminergic neuron differentiation score (ReNCell VM [2]; library: Prestwick) 1

O=C(O)CCCc1ccc(N(CCCl)CCCl)cc1 [Chlorambucil]
inactive: neuronal differentiation score (ReNCell VM [1]; library: LOPAC) 0 | neuronal differentiation score (ReNCell VM [1]; library: Prestwick) 0 | dopaminergic neuron differentiation score (ReNCell VM [2]; library: LOPAC) 0 | dopaminergic neuron differentiation score (ReNCell VM [2]; library: Prestwick) 0

CN[C@@H]1C[C@@H](c2ccc(Cl)c(Cl)c2)c2ccccc21 [Indatraline hydrochloride]
inactive: neuronal differentiation score (ReNCell VM [1]; library: LOPAC) 0 | neuronal differentiation score (ReNCell VM [1]; library: Tocriscreen) 0 | dopaminergic neuron differentiation score (ReNCell VM [2]; library: LOPAC) 0 | dopaminergic neuron differentiation score (ReNCell VM [2]; library: Tocriscreen) 0

CC(NC(C)(C)C)C(=O)c1cccc(Cl)c1 (configuration not stated) [Bupropion hydrochloride]
inactive: neuronal differentiation score (ReNCell VM [1]; library: LOPAC) -1 | neuronal differentiation score (ReNCell VM [1]; library: Prestwick) 0 | dopaminergic neuron differentiation score (ReNCell VM [2]; library: LOPAC) 0 | dopaminergic neuron differentiation score (ReNCell VM [2]; library: Prestwick) 0

CN1[C@@H]2CC[C@H]1C[C@@H](OC(=O)[C@H](CO)c1ccccc1)C2 [Hyoscyamine (L)]
inactive: neuronal differentiation score (ReNCell VM [1]; library: Phytochemical) 0 | neuronal differentiation score (ReNCell VM [1]; library: Prestwick) 0 | dopaminergic neuron differentiation score (ReNCell VM [2]; library: Phytochemical) 0 | dopaminergic neuron differentiation score (ReNCell VM [2]; library: Prestwick) 0

COc1ccc(CCN2CCC(Nc3nc4ccccc4n3Cc3ccc(F)cc3)CC2)cc1 [Astemizole]
inactive: neuronal differentiation score (ReNCell VM [1]; library: Prestwick) 0 | neuronal differentiation score (ReNCell VM [1]; library: Tocriscreen) 0 | dopaminergic neuron differentiation score (ReNCell VM [2]; library: Prestwick) 0 | dopaminergic neuron differentiation score (ReNCell VM [2]; library: Tocriscreen) 0

CCCC(C)(COC(N)=O)COC(=O)NC(C)C (configuration not stated) [Carisoprodol]
inactive: neuronal differentiation score (ReNCell VM [1]; library: LOPAC) 0 | neuronal differentiation score (ReNCell VM [1]; library: Prestwick) 0 | dopaminergic neuron differentiation score (ReNCell VM [2]; library: LOPAC) 0 | dopaminergic neuron differentiation score (ReNCell VM [2]; library: Prestwick) 0

CC[C@@]1([C@@H]2O[C@@H]([C@H]3O[C@@](O)(CO)[C@H](C)C[C@@H]3C)C[C@@H]2C)CC[C@H]([C@]2(C)CC[C@]3(C[C@H](O)[C@@H](C)[C@@H]([C@@H](C)[C@@H](OC)[C@H](C)C(=O)O)O3)O2)O1 [Monensin sodium salt]
inactive: neuronal differentiation score (ReNCell VM [1]; library: Phytochemical) 0 | neuronal differentiation score (ReNCell VM [1]; library: Prestwick) 0 | dopaminergic neuron differentiation score (ReNCell VM [2]; library: Phytochemical) 0 | dopaminergic neuron differentiation score (ReNCell VM [2]; library: Prestwick) 0

COc1ccc(C[C@H]2NC[C@H](O)[C@H]2OC(C)=O)cc1 [Anisomycin]
inactive: neuronal differentiation score (ReNCell VM [1]; library: Phytochemical) 0 | neuronal differentiation score (ReNCell VM [1]; library: Tocriscreen) 0 | dopaminergic neuron differentiation score (ReNCell VM [2]; library: Phytochemical) 0 | dopaminergic neuron differentiation score (ReNCell VM [2]; library: Tocriscreen) 0

CCn1cc(C(=O)O)c(=O)c2cc3c(cc21)OCO3 [Oxolinic acid]
inactive: neuronal differentiation score (ReNCell VM [1]; library: LOPAC) 0 | neuronal differentiation score (ReNCell VM [1]; library: Prestwick) 0 | dopaminergic neuron differentiation score (ReNCell VM [2]; library: LOPAC) 0 | dopaminergic neuron differentiation score (ReNCell VM [2]; library: Prestwick) 0

CC(C)c1cccc(C(C)C)c1O [Propofol]
inactive: neuronal differentiation score (ReNCell VM [1]; library: LOPAC) 0 | neuronal differentiation score (ReNCell VM [1]; library: Prestwick) 0 | dopaminergic neuron differentiation score (ReNCell VM [2]; library: LOPAC) 0 | dopaminergic neuron differentiation score (ReNCell VM [2]; library: Prestwick) 0

O=c1c2ccccc2[se]n1-c1ccccc1 [Ebselen]
inactive: neuronal differentiation score (ReNCell VM [1]; library: LOPAC) -2 | neuronal differentiation score (ReNCell VM [1]; library: Prestwick) 0 | dopaminergic neuron differentiation score (ReNCell VM [2]; library: LOPAC) 0 | dopaminergic neuron differentiation score (ReNCell VM [2]; library: Prestwick) 0

C=CCN1CC[C@]23c4c5ccc(O)c4O[C@H]2/C(=N/NC(=O)c2ccccc2)CC[C@@]3(O)[C@H]1C5 [Naloxone benzoylhydrazone]
inactive: neuronal differentiation score (ReNCell VM [1]; library: LOPAC) 0 | neuronal differentiation score (ReNCell VM [1]; library: Tocriscreen) 0 | dopaminergic neuron differentiation score (ReNCell VM [2]; library: LOPAC) 0 | dopaminergic neuron differentiation score (ReNCell VM [2]; library: Tocriscreen) 0

COc1ccc(OC)c(C(O)C(C)N)c1 (configuration not stated) [Methoxamine hydrochloride]
inactive: neuronal differentiation score (ReNCell VM [1]; library: LOPAC) 0 | neuronal differentiation score (ReNCell VM [1]; library: Prestwick) 0 | dopaminergic neuron differentiation score (ReNCell VM [2]; library: LOPAC) 0 | dopaminergic neuron differentiation score (ReNCell VM [2]; library: Prestwick) 0

c1ccc(CCCN2CCN(CCOC(c3ccccc3)c3ccccc3)CC2)cc1
inactive: neuronal differentiation score (ReNCell VM [1]; library: LOPAC) 0 | neuronal differentiation score (ReNCell VM [1]; library: Tocriscreen) 0 | dopaminergic neuron differentiation score (ReNCell VM [2]; library: LOPAC) 0 | dopaminergic neuron differentiation score (ReNCell VM [2]; library: Tocriscreen) 0

NC(=O)CN1CCCC1=O [Piracetam]
inactive: neuronal differentiation score (ReNCell VM [1]; library: LOPAC) 1 | neuronal differentiation score (ReNCell VM [1]; library: Prestwick) 0 | dopaminergic neuron differentiation score (ReNCell VM [2]; library: LOPAC) 0 | dopaminergic neuron differentiation score (ReNCell VM [2]; library: Prestwick) 0

N=C(N)NN [Aminoguanidine hydrochloride]
inactive: neuronal differentiation score (ReNCell VM [1]; library: LOPAC) 0 | neuronal differentiation score (ReNCell VM [1]; library: Tocriscreen) 0 | dopaminergic neuron differentiation score (ReNCell VM [2]; library: LOPAC) 0 | dopaminergic neuron differentiation score (ReNCell VM [2]; library: Tocriscreen) 0

NCCC(O)C(=O)NC1CC(N)C(OC2OC(CN)C(O)[C@H](O)[C@@H]2N)[C@H](OC2O[C@H](CO)[C@@H](O)[C@@H]2O)[C@@H]1O (some centres not stated) [Butirosin disulfate salt]
inactive: neuronal differentiation score (ReNCell VM [1]; library: Phytochemical) -1 | neuronal differentiation score (ReNCell VM [1]; library: Prestwick) 0 | dopaminergic neuron differentiation score (ReNCell VM [2]; library: Phytochemical) 0 | dopaminergic neuron differentiation score (ReNCell VM [2]; library: Prestwick) 0

C[C@@H]1C[C@@H]([C@H](O)CC2CC(=O)NC(=O)C2)C(=O)[C@@H](C)C1 [Cycloheximide]
inactive: neuronal differentiation score (ReNCell VM [1]; library: Phytochemical) 0 | neuronal differentiation score (ReNCell VM [1]; library: Prestwick) 0 | dopaminergic neuron differentiation score (ReNCell VM [2]; library: Phytochemical) 0 | dopaminergic neuron differentiation score (ReNCell VM [2]; library: Prestwick) 0

C[C@]12CC[C@H](O)C[C@H]1CC[C@@H]1[C@@H]2CC[C@]2(C)[C@@H](C3=CC(=O)OC3)CC[C@]12O [Digitoxigenin]
inactive: neuronal differentiation score (ReNCell VM [1]; library: Phytochemical) 0 | neuronal differentiation score (ReNCell VM [1]; library: Prestwick) 0 | dopaminergic neuron differentiation score (ReNCell VM [2]; library: Phytochemical) 0 | dopaminergic neuron differentiation score (ReNCell VM [2]; library: Prestwick) 0

Cc1c2ccncc2c(C)c2c1[nH]c1ccccc12 [Ellipticine]
inactive: neuronal differentiation score (ReNCell VM [1]; library: LOPAC) 0 | neuronal differentiation score (ReNCell VM [1]; library: Phytochemical) 0 | dopaminergic neuron differentiation score (ReNCell VM [2]; library: LOPAC) 0 | dopaminergic neuron differentiation score (ReNCell VM [2]; library: Phytochemical) 0

c1ccc2c(c1)[I+]c1ccccc1-2 [Diphenyleneiodonium chloride]
inactive: neuronal differentiation score (ReNCell VM [1]; library: LOPAC) 0 | neuronal differentiation score (ReNCell VM [1]; library: Tocriscreen) 0 | dopaminergic neuron differentiation score (ReNCell VM [2]; library: LOPAC) 0 | dopaminergic neuron differentiation score (ReNCell VM [2]; library: Tocriscreen) 0
